In the test the target is T1, PsaG (Photosystem I subunit of C. reinhardtii) (C. reinhardtii (endogenous in strain TSP4xpgr5)) (UniProt P14224).
T1 sequence: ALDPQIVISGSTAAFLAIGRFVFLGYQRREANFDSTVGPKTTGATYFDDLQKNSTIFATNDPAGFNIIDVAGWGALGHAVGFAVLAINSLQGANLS
Put plainly: cryo-EM structure; PSI dimer found among the particles of purified TSP4 PSI (5707 particles); 17.1 Å 3-dimensional map, TSP4–10LHC and TSP4–8LHC models placed into it; sample in 20 mM Tricine pH 8.0; both purified.

Results are given in words; binding and its absence hold for the method and conditions named. Binding can be weak; no strength is given.

Take “Lhca2 (light-harvesting complex I protein of C. reinhardtii PSI)”: the binding entry was “binds”.

(Values after paper PMC8660910.)
